# Laboratory results published in PMC4801207, “Characterisation of Signalling by the Endogenous GPER1 (GPR30) Receptor in an Embryonic Mouse Hippocampal Cell Line (mHippoE-18)” (PLoS ONE, 2016).
# Structures can show the parent of a compound that is named as a salt.
# Target: T1, GPER1 (GPR30) (Mus musculus, UniProt Q8BMP4)
# T1 construct: full-length endogenous receptor, native in mHippoE-18 immortalized embryonic mouse hippocampal cell line (CELLutions Biosystems); cells also express moderate ERalpha and ERbeta
# T1 sequence (Q8BMP4 1-375): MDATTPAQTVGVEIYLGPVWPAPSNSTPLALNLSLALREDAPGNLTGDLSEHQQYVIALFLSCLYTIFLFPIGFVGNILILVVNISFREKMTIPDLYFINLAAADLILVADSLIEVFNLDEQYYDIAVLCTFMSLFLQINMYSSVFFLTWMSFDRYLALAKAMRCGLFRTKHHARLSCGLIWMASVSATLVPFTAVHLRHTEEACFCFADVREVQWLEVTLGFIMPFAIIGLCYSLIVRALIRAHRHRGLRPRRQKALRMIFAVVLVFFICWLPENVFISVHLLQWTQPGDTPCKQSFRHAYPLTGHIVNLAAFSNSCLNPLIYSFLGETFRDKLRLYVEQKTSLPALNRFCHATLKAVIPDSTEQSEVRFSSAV
# Experiment: cAMP accumulation, radiometric PKA binding assay, mHippoE-18 cells
# Type: cell-based
# Conditions: agonist; potentiation of 10 μM forskolin-stimulated cAMP, 100 μM IBMX, 20 min; endogenous receptor, no antagonist
smiles,measurement,value
"CC/C(=C(\c1ccccc1)c1ccc(OCCN(C)C)cc1)c1ccccc1 [Tamoxifen, (2)-2-[4-(1,2-Diphenyl-1-butenyl)phenoxy]-N,N-dimethylethanamine citrate]",EC50,0.64 nM
